Data as given in paper doi:10.1101/2024.07.29.603210.
No constants are given. Whether binding was seen depends on the method and setting. Binding seen in cells or lysates may run through a third protein. Some results given as binding are weak or reduced against the parent protein; the word gives no strength. For some assays here: Where a sequence is shown, tags or fusion partners need not be part of it.

Assays:
[1] = biological target: T1, mitoNEET tagged with HA in its C-terminus (mouse, full length) (mouse) (UniProt Q91WS0); assay: co-IP
T1 sequence: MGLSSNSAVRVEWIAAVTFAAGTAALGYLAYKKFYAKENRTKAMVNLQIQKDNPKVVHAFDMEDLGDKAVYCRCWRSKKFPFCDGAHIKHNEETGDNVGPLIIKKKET

[2] = biological target: T2, endogenous mitoNEET protein (mouse (endogenous in NMuMG)) (UniProt Q91WS0); assay: co-IP
T2 sequence: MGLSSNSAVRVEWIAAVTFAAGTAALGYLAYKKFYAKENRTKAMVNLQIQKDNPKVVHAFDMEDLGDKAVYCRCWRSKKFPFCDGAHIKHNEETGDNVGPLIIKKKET

binding [1]: binds
binding [2]: binds
B1: prohibitin (protein, UniProt P67778 1-272)
chain: MAAKVFESIGKFGLALAVAGGVVNSALYNVDAGHRAVIFDRFRGVQDIVVGEGTHFLIPWVQKPIIFDCRSRPRNVPVITGSKDLQNVNITLRILFRPVASQLPRIYTSIGEDYDERVLPSITTEILKSVVARFDAGELITQRELVSRQVSDDLTERAATFGLILDDVSLTHLTFGKEFTEAVEAKQVAQQEAERARFVVEKAEQQKKAAIISAEGDSKAAELIANSLATAGDGLIELRKLEAAEDIAYQLSRSRNITYLPAGQSVLLQLPQ
